Data as given in patent US20250000812A1, “NANO-SUSPENSIONS AND AMORPHOUS SOLID DISPERSIONS OF HYDROPHOBIC AGENTS AND METHODS OF USE THEREOF” (Genentech, Inc., priority 2022, published 2025).

Experiment: Drug concentration (deposition) analysis of printed pattern by HPLC
Conditions: after thermal inkjet printing
Method: Drug concentration analyses were performed on the printed nano-suspension pattern from Example 2 using a high performance liquid chromatography (HPLC) system equipped with a quaternary pump, a photodiode array UV-Vis detector, and a reversed-phase alkylsilane column (3.5 μm particle size, 50×4.6 mm dimension). The printed patterns from Example 2 were cut and were then washed and fully dissolved with 1:1 acetonitrile:water. The resulting solutions were then analyzed by HPLC with drug concentrations compared to standards of known concentration. The mobile phases of the HPLC process consisted of 0.05% trifluoroacetic acid in water and in acetonotrile. A gradient elution was utilized with the acetonitrile mobile phase increasing from 2 to 65% over 6.5 min at a flow rate of 1.25 mL/min. The column was heated at 30° C. and the detection was carried out at 254 nm.

Structure (SMILES): COc1ccc2cc([C@H](C)C(=O)O)ccc2c1 [naproxen, Naproxen]
- stability throughout the inkjet printing process (degradants or impurities by HPLC): no presence of degradants or other impurities
